No constants are given. Whether binding was seen depends on the method and setting. Binding can be weak; no strength is given.

Sequences of proteins named here, by UniProt entry; tags and fusion partners are left off. Residues count along the entry.
UniProt P23201, residues 1-145: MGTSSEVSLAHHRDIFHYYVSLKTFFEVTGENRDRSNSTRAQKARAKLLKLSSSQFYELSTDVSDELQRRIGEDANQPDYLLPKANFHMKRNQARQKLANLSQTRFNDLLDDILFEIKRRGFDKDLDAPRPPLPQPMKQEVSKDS

The target in experiment [1] is Spa2-1-145 (S. cerevisiae) (UniProt P23201). Kind of experiment: two-hybrid; vectors pGADT7 and pGBKT7; growth at 30°C on SC medium lacking leucine, tryptophan and histidine (selective), 3-4 days.
In experiment [2] the target is Spa2 SHD-V domain fragment (S. cerevisiae). The description is as above.

With “F-BAR domain of Hof1 (two-hybrid fragment) (from UniProt Q05080) (domain or fragment)”, the binding result in experiment [1] was “binds”.

B1: Chs2-215-629 (two-hybrid) (domain or fragment, UniProt P14180 215-629)
chain: ANSESKRRMVSDLPPPSKKKALLKLDNPIPKGLLDTLPRRNSPEFTEMRYTACTVEPDDFLREGYTLRFAEMNRECQIAICITMYNEDKYSLARTIHSIMKNVAHLCKREKSHVWGPNGWKKVSVILISDGRAKVNQGSLDYLAALGVYQEDMAKASVNGDPVKAHIFELTTQVSINADLDYVSKDIVPVQLVFCLKEENKKKINSHRWLFNAFCPVLQPTVVTLVDVGTRLNNTAIYRLWKVFDMDSNVAGAAGQIKTMKGKWGLKLFNPLVASQNFEYKISNILDKPLESVFGYISVLPGALSAYRYRALKNHEDGTGPLRSYFLGETQEGRDHDVFTANMYLAEDRILCWELVAKRDAKWVLKYVKEATGETDVPEDVSEFISQRRRWLNGAMFAAIYAQLHFYQIWKTKHS
Take B1: the binding entry in experiment [2] was “binds”.

B2: Hof1 (two-hybrid construct of Fig 5E) (protein, UniProt Q05080 1-669)
chain: MSYSYEACFWDPNDNGVNILLGHISQGIRSCDSMILFFKQRSELEKDYARRLGAITGKLDKDIGTNMDYGKLNETFNVVLSVEKARAQSHSKQSEILFRQIYTDTKAFAANLQARYTTLSGKIERLRMDKFNKKKGCEVLQKKLQDAQIRFRDLQLNENNMIGAKRVEHNKRELLKWESNSQEYKVQLDVLKQEYKASQKFWIHEWAQLSCELQEMENARISFLQSKLQQFATSSMETYILEQTKMDMLTNHLNSFTAADEISTFSKENGTGRLKHKTSKGDMNSSANWAQMSSISTTSKKTESYMDNIRKLSSQLKETENKRKLASIDKYEKPLPSPEVTMATQFRNSTPVIRNETKVVANPTLSLRSSPVQLQSNVDDSVLRQKPDKPRPIVGEEQLKPDEDSKNPDEKGLMVHKRNQSLSSPSESSSSNPTDFSHIKKRQSMESMTTSVSSMANSIDDSQRFAKSWNSSNRKRKSMSHLQVPSSASSRSDDGGRTPNSAHNLNEDDYNTRRDTSTSTILFKPPVAVRGTSRGHTHRQSMIMQDSSNPIEDALYEMERIQSSSKPGTKTGNIMDERGVVRDRGITVTLPIVTSEGFPVIEYAKAMYPLIGNEAPGLANFHKGDYLLITEIVNKDWYKGEVYDNDRIDRNHRIGLIPYNFIQLLHQGL
For the molecule B2, in experiment [2], the binding entry is “binds”.

These data come from PMC5895073, “Cell polarity protein Spa2 coordinates Chs2 incorporation at the division site in budding yeast” (PLoS Genetics, 2018).
